Laboratory results as given in PubChem BioAssay AID662 (National Center for Advancing Translational Sciences (NCATS), 2007).
This is one part of the list. Shown are side measurements of this screen, not its main read-out; they come without a call. Most of these compounds were active or inconclusive in the main read-out, so they are no random draw. Words in brackets tell the shape of the fitted curve; partial curves, single points and poor fits give uncertain potencies. Numbered stars: 1 amine (or outer) side, 2 acyl side, 3 side chain; on linkers, the order of the positions; unused ones are H or OH. Bridge positions count the residues as written; N and C are the ends. Square brackets hold non-standard residues; d marks the D form. Peptide text beside a SMILES is read from it. I, II: the chains in the order shown. Actinocin(9to1) = Cc1c2oc3c(C)ccc(C(=O)[*:1])c3nc-2c(C(=O)[*:2])c(N)c1=O; NMeV = CN[C@H](C(=O)O)C(C)C; Sar = CNCC(=O)O

assay: Cell signaling CRE-BLA (Fsk stim); settings: CHO CRE-bla reporter (cAMP response element driving beta-lactamase), forskolin EC10, beta-lactamase ratio; measured here: 460 nm blue channel
Procedure, shortened: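 Cells were plated overnight at 37 °C, exposed to compound titrations plus EC10 NKH 477 for 3 h, then given CCF4 dye for 2 h at room temperature. Blue/green (460/530 nm) ratio was converted to %Activity and AC50 values calculated.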

Structure (SMILES)	AC50
O=C(NCCCN1CCCC1=O)c1ccc2c(c1)NC(=O)C(N1CCOCC1)S2 (stereo not drawn)	1.26 µM [falling, full curve, poor fit]
COc1cc(C(=O)OCC(=O)c2cc(C)n(C)c2C)cc(NC(=O)c2ccco2)c1OC	7.94 µM [rising, partial curve]
COc1ccc2[nH]c3nc(SCc4nnc(-c5ccc(C)cc5)o4)nnc3c2c1	1 µM [rising, full curve]
Cc1ccc(CNC(=O)CN2CCN(Cc3ccc(C)cc3)C2=O)cc1	5.01 µM [falling, single point]
CCCS(=O)(=O)c1nnnn1-c1cccc(OC)c1	12.6 µM [falling, partial curve, poor fit]
CCC/C=C(\CCC)C(NC(=O)c1ccc(C(F)(F)F)cc1)c1ccc(C(F)(F)F)cc1 (stereo not drawn)	0.316 µM [rising, full curve]
CCOCCN1CCN(c2c(C)c(C)nc3cc(-c4cc(OC)cc(OC)c4)nn23)CC1	3.98 µM [rising, full curve]
COCc1c(C(=O)OCC(=O)N2c3ccccc3CC2C)oc2ccccc12 (stereo not drawn)	10 µM [rising, single point]
CCOC(=O)c1[nH]c(C)c(C(=O)c2cc(F)ccc2F)c1C	12.6 µM [rising, partial curve]
COCCn1c(=O)c(-c2cccc(C#N)c2)nc2cnc(Oc3ccc(OC)cc3)nc21	25.1 µM [rising, partial curve]
C=C[C@@](C)(O)CC[C@H]1[C@]2(C)CCCC(C)(C)[C@H]2CC[C@]1(C)O	0.398 µM [falling, full curve, poor fit]
COc1ccc(CCNS(=O)(=O)c2ccc(C3CNC(=O)C3)cc2)cc1OC (stereo not drawn)	12.6 µM [rising, partial curve]
COC(=O)[C@@]1(Cc2ccc(OC)cc2)[C@H]2c3cc(C(=O)N4CCCC4)n(CCn4cc([N+](=O)[O-])nc4C)c3C[C@H]2CN1C(=O)c1ccccc1	3.98 µM [rising, partial curve]
COc1ccc(-c2cc3ccc(OCc4nn[nH]n4)cc3oc2=O)cc1	15.8 µM [rising, single point]
CCOC(=O)CSc1ccc2nnc(-c3cccs3)n2n1	5.01 µM [rising, partial curve]
Cc1cc(NC(=O)CSc2nc3ccccc3n2CC(=O)N2CCCCC2)no1	25.1 µM [rising, single point]
CCOC(=O)CCn1c(=O)c2c(nc(Br)n2Cc2ccccc2)n(C)c1=O	15.8 µM [rising, single point]
CCOC(=O)c1ccc(NC(=O)CCc2nc(-c3ccccc3)no2)cc1	31.6 µM [falling, single point]
Fc1ccccc1CSc1nnc(-c2ccccc2)o1	15.8 µM [rising, partial curve, poor fit]
CC[C@@H]1Cc2cc(O)ccc2C2=C1c1ccc(O)cc1C[C@H]2CC	12.6 µM [falling, partial curve]
CC(=O)Nc1nc2ccc(Br)cc2s1	10 µM [falling, single point]

Structure (SMILES)	AC50
O=C(COc1ccccc1)Nc1ccc2c(c1)nc1n2CCSC1	0.631 µM [rising, full curve]
CCOC(=O)C1CCN(CC(=O)c2c(C)[nH]c3ccccc23)CC1	3.16 µM [falling, full curve]
Cc1cc(NC(=O)CSC2=Nc3ccccc3C3=NC(Cc4ccccc4)C(=O)N23)n[nH]1 (stereo not drawn)	1 µM [rising, full curve]
CCCn1c2ccccc2c2nnc(SCC(=O)OC)nc21	3.98 µM [rising, partial curve]
COc1cc(NC(=O)Cn2c(-c3cncs3)nc3ccccc32)cc(OC)c1OC	10 µM [rising, partial curve]
Cc1ccc(-n2c(N)c(-c3nc4ccccc4n3C)sc2=S)cc1	5.01 µM [rising, single point]
Cc1nn2c(N3CCN(c4ccccn4)CC3)cc(C(C)C)nc2c1-c1ccccc1	2 µM [rising, partial curve]
CCC(=O)Oc1ccc2c(C)c(Cl)c(=O)oc2c1	12.6 µM [rising, partial curve]
O=CN(Cc1ccco1)C1(C(=O)NC2CCCCC2)CCCCC1	0.00316 µM [falling, full curve, poor fit]
Cn1c(=O)c2c(nc(CN3CCN(c4ccc(F)cc4)CC3)n2CCN2CCOCC2)n(C)c1=O	20 µM [rising, single point]
Cc1noc(C)c1-c1nc(N2CCNCC2)c2ccccc2n1	12.6 µM [rising, partial curve]
CCCCCCn1c(SCC(=O)c2ccccc2)nc2c1c(=O)[nH]c(=O)n2C	3.16 µM [rising, full curve]
Cn1c(=O)c2c(nc(OCC3COC(C)(C)O3)n2Cc2ccccc2F)n(C)c1=O (stereo not drawn)	10 µM [rising, single point]
CN(Cc1ccco1)c1cc(-c2ccoc2)ncn1	5.01 µM [rising, single point]
O=C(NCCC1=CCCCC1)C1CCN(S(=O)(=O)c2ccc(-n3cnnn3)cc2)CC1	0.1 µM [falling, full curve, poor fit]
OC(CNCCc1ccccc1)c1ccccc1 (stereo not drawn)	0.00631 µM [falling, full curve, poor fit]
COc1cc(C(=O)Nc2ccncc2)cc(OC)c1OC	15.8 µM [rising, single point]
CCSc1nc(N2CCOCC2)c2c(c1C#N)CCCC2	7.94 µM [falling, partial curve]
CC1=C(C(=O)NCc2ccccc2)C(c2cccnc2)n2ncnc2N1 (stereo not drawn)	25.1 µM [rising, single point]
On1onc2c3cc(-c4ccccc4)nc3ccc21	12.6 µM [rising, partial curve]
O[C@H](CCCN1CCN(c2ncc(F)cn2)CC1)c1ccc(F)cc1	25.1 µM [falling, partial curve, poor fit]

Structure (SMILES)	AC50
CCSc1nc2cc(C(=O)OC)ccc2c(=O)n1CC	12.6 µM [rising, partial curve]
Cn1c2c(c(=O)n(C)c1=O)C1c3ccccc3OCC1C(C)(C)O2 (stereo not drawn)	12.6 µM [rising, partial curve]
CN1CCN(c2ncc3nc(-c4ccccc4)c(=O)n(Cc4ccc(F)cc4)c3n2)CC1	3.98 µM [rising, full curve]
O=C(CCS(=O)(=O)c1cc(Br)cc2c1N(C(=O)C1CC1)CC2)NCc1ccco1	0.126 µM [falling, full curve]
COc1cc(OC)c(NC(=O)Nc2ccc(OC)c(OC)c2)cc1Cl	12.6 µM [rising, single point]
C=CCNC(=O)c1scc2c1CCCC2	0.00398 µM [falling, full curve, poor fit]
CCOC(=O)c1oc2ccccc2c1NC(=O)c1cccs1	2 µM [rising, full curve]
CC(=O)c1ccc(NS(=O)(=O)c2ccccc2)cc1	3.16 µM [falling, partial curve]
Cc1ccc(-c2nc3ncccn3c2Nc2ccc3c(c2)OCO3)o1	0.00398 µM [falling, full curve, poor fit]
COc1ccc(Oc2ncc3nc(-c4cccs4)c(=O)n(C)c3n2)cc1	6.31 µM [rising, partial curve]
Cc1c2oc3c(C)ccc(C(=O)N[C@@H]4C(=O)N[C@H](C(C)C)C(=O)N5CCC[C@H]5C(=O)N(C)CC(=O)N(C)[C@@H](C(C)C)C(=O)O[C@@H]4C)c3nc-2c(C(=O)N[C@@H]2C(=O)N[C@H](C(C)C)C(=O)N3CCC[C@H]3C(=O)N(C)CC(=O)N(C)[C@@H](C(C)C)C(=O)O[C@@H]2C)c(N)c1=O (I: T[dV]P[Sar][NMeV] / II: T[dV]P[Sar][NMeV]; ester I:1-I:C, II:1-II:C; linker I:N-II:N via Actinocin(9to1))	0.0398 µM [falling, full curve, poor fit]
COc1cc(C(=O)Nc2cc(C)ccn2)cc(OC)c1OC	15.8 µM [rising, single point]
Cc1nn(-c2ccc(F)cc2)c2sc(C(=O)O)cc12	3.16 µM [rising, full curve]
Cc1nn(Cc2ccc(Cl)cc2)c(C)c1NC(=O)c1cc(-c2ccc3c(c2)OCO3)on1	10 µM [rising, partial curve]
COCCCn1c(=S)[nH]c2ccc(N3CCOCC3)cc2c1=O	25.1 µM [rising, single point]
N#CCCn1c(=O)c(-c2cccc(C#N)c2)nc2cnc(N3CCOCC3)nc21	3.16 µM [rising, partial curve]
Nc1ncnc2c1nc(Sc1ccc(Cl)cc1)n2[C@@H]1O[C@H]2COP(=O)(O)O[C@@H]2[C@H]1O	25.1 µM [rising, single point]
O=c1c(CCc2ccccc2)nc2cnc(Nc3ccccc3)nc2n1Cc1cccs1	1.58 µM [rising, partial curve]
CCOc1cc(C2C(C(=O)c3ccco3)=C(O)C(=O)N2CCc2ccccc2)ccc1O (stereo not drawn)	31.6 µM [falling, partial curve]
Cc1ccc(C)c(N2CCN(C(=O)CCCCn3c(=O)[nH]c4ccccc4c3=O)CC2)c1	12.6 µM [rising, partial curve]
COc1ccc(-c2cc(C(=O)OCC(=O)N(C)C)c3ccccc3n2)cc1	10 µM [rising, partial curve]

3 compounds drawn at random from those above, as already listed:
Structure (SMILES)	AC50
N#CCCn1c(=O)c(-c2cccc(C#N)c2)nc2cnc(N3CCOCC3)nc21	3.16 µM [rising, partial curve]
COc1ccc(Oc2ncc3nc(-c4cccs4)c(=O)n(C)c3n2)cc1	6.31 µM [rising, partial curve]
CCOC(=O)c1oc2ccccc2c1NC(=O)c1cccs1	2 µM [rising, full curve]
